Test results taken from PubChem BioAssay AID2685 (National Center for Advancing Translational Sciences (NCATS), 2010).
In all, about 320,000 compounds went through this assay and about 2,100 (0.66%) were called active. The shares of active, inactive and inconclusive entries below differ from those in the screen. Calls follow the shape of the dose curve; as a rule, active = well fitted inhibition curve with a large enough effect in the signal ratio, with a control signal flat (not every such curve was filed as active); inconclusive = small, poorly fitted or top-dose-only effect, or effect the other way, or a change in a side signal; inactive = flat fitted curve, though single readings scatter; the % refers to the signal ratio. Where the call is inconclusive, the potency comes from a doubtful curve fit.

test: qHTS Assay for Lipid Storage Modulators in Drosophila S3 Cells; details: BODIPY lipid droplet fluorescence, 18-24 h, cells fed with added oleic acid; lipid storage change, negative = inhibition: at 46.1 µM (top of the series) unless noted
Method in brief: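 Laser-scanning cytometry quantifies lipid droplet accumulation (500–530 nm total intensity; droplet/cell object ratio) in oleic acid-fed (400 uM added) Drosophila S3 cells treated with a concentration series. 20 uM Triacsin C defined 100% inhibition.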
% is scaled to controls: 0 for no effect and ±100 for the full control effect; potency is read from the fitted curve at half-maximal effect.

Compound	lipid storage change, negative = inhibition	Potency
COc1ccccc1N1CCN(C2CC(=O)N(c3cccc(Br)c3)C2=O)CC1 (stereo unspecified)	inconclusive: -34.2%	–
O=S(=O)(NCC(c1ccccc1)N1CCC(O)CC1)c1ccc(Cl)cc1 (stereo unspecified)	inactive	–
CCc1noc(C)c1C(=O)Nc1ccccc1C(C)(C)C	inconclusive: 50%	–
C(=N\Nc1nc(N2CCOCC2)nc(N2CCOCC2)n1)/c1cccnc1	inconclusive: 29.8%	–
Cc1noc(C)c1S(=O)(=O)N(CC(=O)Nc1ccc2c(c1)OCCO2)c1ccc(C(C)C)cc1	–	inconclusive: 18.4 µM [falling, partial curve, poor fit]
COc1ccc(NS(=O)(=O)c2ccc(C)c(C(=O)NNC(=O)c3ccccc3O)c2)cc1	–	inconclusive: 2.91 µM [activator, full curve]
COc1ccc(NC(=O)NNC(=O)C(C)Oc2ccc3ccccc3c2)cc1 (stereo unspecified)	inconclusive: 28%	–
O=S(=O)(NN1CCOCC1)c1ccc(Br)s1	–	inconclusive: 29.1 µM [falling, single point]
COc1ccc(OC)c(C(=O)COC(=O)c2cccnc2SC)c1	inconclusive	–
O=C(Cc1ccc(Cl)cc1)Nc1ccc2oc(=O)ccc2c1	–	inconclusive: 1.64 µM [activator, full curve, poor fit]
c1cc(-c2nsc(-c3ccncc3)n2)ccn1	–	inconclusive: 0.651 µM [activator, full curve, poor fit]
O=C(CCN1C(=O)C2C3CCC(C3)C2C1=O)OCC(=O)c1ccc(Br)cc1 (stereo unspecified)	–	inconclusive: 0.0206 µM [falling, full curve, poor fit]
Cc1cc(Br)ccc1SCC(=O)OCC(=O)Nc1ncc(C(F)(F)F)cc1Cl	inconclusive: 9.37%	–
CCn1c(O)c(N=NC(=O)c2ccc(CSc3nncn3C)cc2)c2ccccc21	inconclusive: -81.4%	–
O=C(NCCc1cn2ccccc2n1)C1CCCCC1	inconclusive: 38.1%	–
COc1ccc(N2CCN(C(=O)COC(=O)c3oc4ccc(OC)cc4c3C)CC2)cc1	inconclusive: 12.4%	–
O=C(CN1CCN(Cc2ccccc2F)CC1)Nc1ccccc1Cl	inconclusive: -9.28%	–
CCOc1ccc2nc(NC(=O)c3ccoc3C)sc2c1	inconclusive: -2.18%	–
C1=Nc2c(Nc3ccccc3)ncnc2Oc2ccccc21	–	inconclusive: 9.2 µM [activator, partial curve]
Cc1ccc(SCCC(=O)Nc2ccc(Br)c(C)c2)cc1	inconclusive: -23.2%	–
CC(=O)c1c(N2CCN(c3ccc(F)cc3)CC2)nc(=S)n(-c2ccccc2)c1C	inconclusive: -1.08%	–

Two entries drawn at random from the list so far:
Compound	lipid storage change, negative = inhibition	Potency
O=S(=O)(NCC(c1ccccc1)N1CCC(O)CC1)c1ccc(Cl)cc1 (stereo unspecified)	inactive	–
COc1ccccc1N1CCN(C2CC(=O)N(c3cccc(Br)c3)C2=O)CC1 (stereo unspecified)	inconclusive: -34.2%	–
